From the supplement of paper PMC10849652
Some of the results follow.

Amino acid sequences for entries named in this document (tags omitted). A change or cut given only in a name is not applied to a line headed by its entry.
UniProt Q9NZT2: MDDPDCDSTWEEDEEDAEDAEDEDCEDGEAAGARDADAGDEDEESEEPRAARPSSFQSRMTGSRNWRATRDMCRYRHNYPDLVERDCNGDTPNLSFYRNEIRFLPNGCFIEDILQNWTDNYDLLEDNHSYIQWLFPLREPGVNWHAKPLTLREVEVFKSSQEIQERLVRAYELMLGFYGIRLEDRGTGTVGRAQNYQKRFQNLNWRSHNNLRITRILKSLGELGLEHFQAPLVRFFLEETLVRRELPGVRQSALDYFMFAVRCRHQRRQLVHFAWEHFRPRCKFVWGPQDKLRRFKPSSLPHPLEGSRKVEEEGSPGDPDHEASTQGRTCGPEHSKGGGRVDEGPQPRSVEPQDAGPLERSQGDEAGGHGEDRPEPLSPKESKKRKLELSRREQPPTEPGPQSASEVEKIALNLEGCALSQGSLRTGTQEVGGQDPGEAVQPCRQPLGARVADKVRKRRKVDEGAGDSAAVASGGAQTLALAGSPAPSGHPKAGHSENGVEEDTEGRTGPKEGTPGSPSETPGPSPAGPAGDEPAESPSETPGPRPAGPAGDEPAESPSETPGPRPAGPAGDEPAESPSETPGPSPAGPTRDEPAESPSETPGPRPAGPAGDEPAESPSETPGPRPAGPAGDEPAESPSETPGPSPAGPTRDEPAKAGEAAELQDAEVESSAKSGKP
UniProt Q14980: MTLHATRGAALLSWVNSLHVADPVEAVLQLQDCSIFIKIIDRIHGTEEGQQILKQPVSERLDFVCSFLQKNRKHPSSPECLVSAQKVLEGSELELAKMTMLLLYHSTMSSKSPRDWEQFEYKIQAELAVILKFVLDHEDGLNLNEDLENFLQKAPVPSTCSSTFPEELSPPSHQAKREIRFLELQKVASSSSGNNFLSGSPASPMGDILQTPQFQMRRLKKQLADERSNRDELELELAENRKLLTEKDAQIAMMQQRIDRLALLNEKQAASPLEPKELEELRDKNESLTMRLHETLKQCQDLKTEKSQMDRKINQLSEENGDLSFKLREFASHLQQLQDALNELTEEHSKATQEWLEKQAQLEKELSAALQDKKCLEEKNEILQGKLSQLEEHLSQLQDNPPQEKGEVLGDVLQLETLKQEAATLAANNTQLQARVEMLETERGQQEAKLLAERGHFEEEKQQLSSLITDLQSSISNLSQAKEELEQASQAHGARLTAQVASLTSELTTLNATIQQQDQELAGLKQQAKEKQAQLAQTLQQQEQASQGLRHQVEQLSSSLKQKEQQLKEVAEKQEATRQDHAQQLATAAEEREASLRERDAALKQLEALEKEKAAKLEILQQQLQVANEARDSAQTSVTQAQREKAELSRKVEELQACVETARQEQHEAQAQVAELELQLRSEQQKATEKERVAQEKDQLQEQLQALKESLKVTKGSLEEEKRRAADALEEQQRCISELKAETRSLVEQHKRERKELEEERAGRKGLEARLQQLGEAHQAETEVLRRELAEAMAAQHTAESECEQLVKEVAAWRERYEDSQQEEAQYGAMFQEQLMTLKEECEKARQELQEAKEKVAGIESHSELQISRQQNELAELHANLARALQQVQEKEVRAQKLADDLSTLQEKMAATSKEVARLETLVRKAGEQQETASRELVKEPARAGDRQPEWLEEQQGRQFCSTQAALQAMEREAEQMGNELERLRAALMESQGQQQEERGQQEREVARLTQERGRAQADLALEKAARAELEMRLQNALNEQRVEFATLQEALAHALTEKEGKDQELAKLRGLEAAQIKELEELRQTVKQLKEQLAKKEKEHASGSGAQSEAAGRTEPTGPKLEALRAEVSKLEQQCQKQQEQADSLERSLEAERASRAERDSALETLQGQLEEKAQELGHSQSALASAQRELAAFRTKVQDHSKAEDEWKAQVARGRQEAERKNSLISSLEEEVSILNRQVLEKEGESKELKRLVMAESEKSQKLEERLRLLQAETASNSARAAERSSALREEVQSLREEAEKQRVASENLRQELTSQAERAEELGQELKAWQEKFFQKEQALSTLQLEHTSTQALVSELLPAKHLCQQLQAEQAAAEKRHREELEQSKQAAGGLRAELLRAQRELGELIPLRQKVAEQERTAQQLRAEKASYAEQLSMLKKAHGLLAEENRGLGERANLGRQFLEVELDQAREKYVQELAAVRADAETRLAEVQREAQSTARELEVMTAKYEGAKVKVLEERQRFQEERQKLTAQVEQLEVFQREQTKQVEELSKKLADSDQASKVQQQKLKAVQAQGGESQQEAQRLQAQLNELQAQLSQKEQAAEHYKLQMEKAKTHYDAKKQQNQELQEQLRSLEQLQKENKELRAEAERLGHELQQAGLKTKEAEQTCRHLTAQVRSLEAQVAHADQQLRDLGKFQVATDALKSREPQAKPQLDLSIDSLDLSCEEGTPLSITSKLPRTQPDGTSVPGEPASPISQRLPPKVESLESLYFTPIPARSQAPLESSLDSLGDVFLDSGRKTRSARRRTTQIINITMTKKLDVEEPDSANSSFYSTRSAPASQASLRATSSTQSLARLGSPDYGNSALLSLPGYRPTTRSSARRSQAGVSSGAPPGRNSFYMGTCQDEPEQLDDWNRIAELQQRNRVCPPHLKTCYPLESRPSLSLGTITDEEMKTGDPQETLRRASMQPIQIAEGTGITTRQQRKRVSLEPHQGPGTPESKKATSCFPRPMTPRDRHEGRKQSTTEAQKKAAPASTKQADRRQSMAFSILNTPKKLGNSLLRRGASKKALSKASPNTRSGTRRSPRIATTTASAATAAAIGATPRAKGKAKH
UniProt P52948: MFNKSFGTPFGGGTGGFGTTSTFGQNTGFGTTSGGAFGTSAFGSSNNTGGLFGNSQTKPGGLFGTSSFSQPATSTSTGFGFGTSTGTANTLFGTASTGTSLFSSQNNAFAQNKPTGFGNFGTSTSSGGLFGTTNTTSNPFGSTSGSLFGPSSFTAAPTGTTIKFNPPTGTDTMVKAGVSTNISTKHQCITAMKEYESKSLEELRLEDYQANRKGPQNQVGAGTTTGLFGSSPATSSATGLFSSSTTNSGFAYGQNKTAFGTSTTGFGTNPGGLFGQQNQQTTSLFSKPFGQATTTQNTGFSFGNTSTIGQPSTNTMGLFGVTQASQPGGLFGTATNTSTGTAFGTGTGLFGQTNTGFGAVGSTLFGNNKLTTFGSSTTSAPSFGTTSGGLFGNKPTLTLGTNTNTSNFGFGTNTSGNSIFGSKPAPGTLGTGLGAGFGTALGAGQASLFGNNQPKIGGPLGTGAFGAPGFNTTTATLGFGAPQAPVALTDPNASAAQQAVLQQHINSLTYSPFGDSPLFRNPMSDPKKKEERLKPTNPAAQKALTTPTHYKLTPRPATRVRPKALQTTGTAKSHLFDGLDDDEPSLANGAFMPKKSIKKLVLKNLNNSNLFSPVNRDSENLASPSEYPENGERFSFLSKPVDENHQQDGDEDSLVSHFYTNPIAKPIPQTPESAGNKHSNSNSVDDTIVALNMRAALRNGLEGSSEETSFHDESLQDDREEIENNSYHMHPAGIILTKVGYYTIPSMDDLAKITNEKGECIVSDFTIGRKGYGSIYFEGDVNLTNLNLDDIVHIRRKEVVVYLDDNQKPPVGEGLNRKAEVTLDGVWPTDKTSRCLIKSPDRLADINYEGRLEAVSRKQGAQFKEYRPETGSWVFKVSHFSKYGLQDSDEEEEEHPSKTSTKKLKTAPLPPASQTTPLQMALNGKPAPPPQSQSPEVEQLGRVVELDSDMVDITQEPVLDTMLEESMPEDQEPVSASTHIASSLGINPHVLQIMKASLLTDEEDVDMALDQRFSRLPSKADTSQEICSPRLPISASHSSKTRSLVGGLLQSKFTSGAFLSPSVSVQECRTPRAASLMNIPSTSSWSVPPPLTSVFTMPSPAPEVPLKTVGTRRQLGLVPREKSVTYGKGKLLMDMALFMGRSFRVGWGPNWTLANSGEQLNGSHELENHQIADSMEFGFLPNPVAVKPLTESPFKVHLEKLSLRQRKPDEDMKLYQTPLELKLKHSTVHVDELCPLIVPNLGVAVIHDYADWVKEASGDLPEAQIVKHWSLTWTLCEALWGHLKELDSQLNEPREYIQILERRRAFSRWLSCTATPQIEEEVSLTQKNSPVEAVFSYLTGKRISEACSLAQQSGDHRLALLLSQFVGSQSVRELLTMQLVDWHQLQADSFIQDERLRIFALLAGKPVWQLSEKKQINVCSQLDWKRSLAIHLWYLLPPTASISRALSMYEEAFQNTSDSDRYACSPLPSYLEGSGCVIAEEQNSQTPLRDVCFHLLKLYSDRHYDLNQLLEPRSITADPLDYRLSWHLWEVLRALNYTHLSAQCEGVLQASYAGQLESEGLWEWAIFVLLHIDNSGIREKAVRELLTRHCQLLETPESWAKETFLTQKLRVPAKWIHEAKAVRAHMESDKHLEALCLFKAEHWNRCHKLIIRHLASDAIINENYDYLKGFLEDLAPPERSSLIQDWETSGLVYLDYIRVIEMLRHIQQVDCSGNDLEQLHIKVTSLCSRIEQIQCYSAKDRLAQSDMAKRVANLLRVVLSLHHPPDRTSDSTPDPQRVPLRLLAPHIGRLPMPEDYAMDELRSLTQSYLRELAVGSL
UniProt Q8N6M0: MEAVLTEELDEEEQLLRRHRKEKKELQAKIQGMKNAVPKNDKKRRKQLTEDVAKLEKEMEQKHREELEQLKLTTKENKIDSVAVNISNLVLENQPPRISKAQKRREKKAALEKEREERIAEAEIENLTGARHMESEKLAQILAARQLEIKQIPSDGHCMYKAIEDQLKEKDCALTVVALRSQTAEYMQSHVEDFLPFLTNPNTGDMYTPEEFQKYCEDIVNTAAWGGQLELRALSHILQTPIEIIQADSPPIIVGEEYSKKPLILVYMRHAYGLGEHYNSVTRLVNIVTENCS
UniProt P04181: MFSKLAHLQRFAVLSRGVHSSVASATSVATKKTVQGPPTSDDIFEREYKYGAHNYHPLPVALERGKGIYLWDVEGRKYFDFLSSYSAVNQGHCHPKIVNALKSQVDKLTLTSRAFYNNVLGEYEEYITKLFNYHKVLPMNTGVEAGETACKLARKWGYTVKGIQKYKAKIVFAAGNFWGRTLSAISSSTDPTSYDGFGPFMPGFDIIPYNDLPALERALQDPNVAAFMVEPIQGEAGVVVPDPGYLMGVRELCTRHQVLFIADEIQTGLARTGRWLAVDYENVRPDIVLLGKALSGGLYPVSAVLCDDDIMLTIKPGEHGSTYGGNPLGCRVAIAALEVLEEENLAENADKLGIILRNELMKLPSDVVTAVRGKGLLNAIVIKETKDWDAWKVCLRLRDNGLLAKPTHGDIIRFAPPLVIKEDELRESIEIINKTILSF
UniProt O43913: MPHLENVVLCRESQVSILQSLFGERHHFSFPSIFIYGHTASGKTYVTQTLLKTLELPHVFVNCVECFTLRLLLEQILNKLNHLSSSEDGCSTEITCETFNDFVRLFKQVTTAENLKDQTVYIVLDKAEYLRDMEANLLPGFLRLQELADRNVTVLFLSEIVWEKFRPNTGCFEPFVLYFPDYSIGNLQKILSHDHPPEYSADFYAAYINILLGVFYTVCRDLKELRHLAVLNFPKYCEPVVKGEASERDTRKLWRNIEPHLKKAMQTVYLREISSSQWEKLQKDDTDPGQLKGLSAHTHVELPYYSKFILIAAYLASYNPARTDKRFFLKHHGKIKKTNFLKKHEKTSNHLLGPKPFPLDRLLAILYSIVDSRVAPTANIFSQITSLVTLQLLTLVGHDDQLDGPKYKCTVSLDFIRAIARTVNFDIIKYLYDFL
UniProt Q9BRP4: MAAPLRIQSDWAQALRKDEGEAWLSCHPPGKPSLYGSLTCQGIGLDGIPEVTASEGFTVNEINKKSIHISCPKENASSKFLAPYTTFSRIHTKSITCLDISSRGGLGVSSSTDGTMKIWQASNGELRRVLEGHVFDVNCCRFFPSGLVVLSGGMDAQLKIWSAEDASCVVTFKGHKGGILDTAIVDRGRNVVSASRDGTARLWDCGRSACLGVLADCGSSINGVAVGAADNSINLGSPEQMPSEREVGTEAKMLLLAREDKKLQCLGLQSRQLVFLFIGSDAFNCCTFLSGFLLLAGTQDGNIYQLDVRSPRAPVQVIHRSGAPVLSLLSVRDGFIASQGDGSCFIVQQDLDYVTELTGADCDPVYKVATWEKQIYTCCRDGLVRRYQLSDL
UniProt Q86WC4: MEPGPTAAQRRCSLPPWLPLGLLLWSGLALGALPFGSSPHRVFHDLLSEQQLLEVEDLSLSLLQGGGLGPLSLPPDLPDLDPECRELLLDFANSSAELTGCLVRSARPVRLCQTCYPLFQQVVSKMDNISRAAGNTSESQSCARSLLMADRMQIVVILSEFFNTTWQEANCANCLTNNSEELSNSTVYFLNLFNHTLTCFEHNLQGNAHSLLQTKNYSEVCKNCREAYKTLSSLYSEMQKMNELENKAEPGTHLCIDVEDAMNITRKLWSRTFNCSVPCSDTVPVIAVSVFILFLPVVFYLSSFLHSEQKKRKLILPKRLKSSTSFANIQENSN

Tests used:
Test in all cases: log2 fold change, soluble protein after heating vs DMSO (PISA); higher = thermal stabilisation; K562 cells, 10 uM, 30 min; active = over 0.2 and 3.5 SD of the protein, either way, in both replicates (recomputed)
[1] = compound: CC[C@@H]1C(=O)N(C)c2cnc(Nc3ccc(C(=O)NC4CCN(C)CC4)cc3OC)nc2N1C1CCCC1
Procedure, shortened: (§1)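 Quantification of soluble protein used TMTpro 16plex LC-MS/MS, with channel sums equalised. Samples were the supernatant after 21,000xg for 90 min of pooled aliquots from K562 cells (2×10^6 cells/mL) treated with 10 μM compound for 30 min, heated for 3 min over 48°C-58°C, and extracted in PBS with 0.5% NP-40 at 4°C. Values, from duplicates, describe thermal stability against control samples on a log2 fold-change scale.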

volasertib = compound: CC[C@@H]1C(=O)N(C)c2cnc(Nc3ccc(C(=O)N[C@H]4CC[C@H](N5CCN(CC6CC6)CC5)CC4)cc3OC)nc2N1C(C)C [volasertib]
Procedure, shortened: as §1

[2] = compound: CC[C@H](C)N1C=C(C2=C(C=C(C=C21)C3=CN=C(C=C3)N4CCNCC4)C(=O)NCC5=C(C=C(NC5=O)C)C)C
Procedure, shortened: as §1

epoxomicin = compound: CC[C@H](C)[C@@H](C(=O)N[C@@H]([C@@H](C)O)C(=O)N[C@@H](CC(C)C)C(=O)[C@]1(CO1)C)NC(=O)[C@H]([C@@H](C)CC)N(C)C(=O)C [epoxomicin]
Procedure, shortened: as §1

[3] = compound: CCn1cc(-c2ccnc3[nH]c(-c4cccc(CN(C)C)c4)cc23)c(-c2ccc(NC(=O)N(C)C)cc2)n1
Procedure, shortened: as §1

[4] = compound: CN(C)CC(=O)Nc1ccc2[nH]c(=O)c3ccccc3c2c1
Procedure, shortened: as §1

[5] = compound: CN1C2=C(C3=C1C(=O)N(N=C3)CC4=CC(=CC=C4)N)SC(=C2)S(=O)C
Procedure, shortened: as §1

[6] = compound: CN1CCC(CNc2ccc3ncc(-c4cccc(OC(F)(F)F)c4)n3n2)CC1
Procedure, shortened: as §1

[7] = compound: CCn1c(C(=O)N(C2CC2)C2CC2)cc2c3c(ncn3C)c(Nc3cc(C)n(C)n3)nc21
Procedure, shortened: as §1

rosiglitazone = compound: CN(CCOC1=CC=C(C=C1)C[C@H]2C(=O)NC(=O)S2)C3=CC=CC=N3 (racemic) [rosiglitazone]
Procedure, shortened: as §1

Measured: log2 fold change

OGFR (UniProt Q9NZT2)
inactive: [1] 0.026 | volasertib -0.103 | [2] 0.167 | epoxomicin -0.076 | [3] -0.041 | [4] 0.142 | [5] -0.027 | [6] -0.134

ORAI1 (UniProt Q96D31)
inactive: [1] 0.028 | volasertib -0.042 | [2] -0.02 | epoxomicin 0.069 | [7] -0.169 | [4] -0.016 | rosiglitazone -0.014

NUMA1 (UniProt Q14980)
inactive: [1] 0.065 | volasertib 0.034 | [2] 0.039 | epoxomicin -0.044 | [3] 0.068 | [4] 0.003 | [5] 0.115 | [6] -0.191

NSMCE2 (UniProt Q96MF7)
active: [6] 0.397
inactive: [1] 0.072 | volasertib -0.032 | [2] -0.003 | epoxomicin -0.089 | [3] 0.079 | [4] -0.007 | [5] 0.059

NUP98 (UniProt P52948)
active: volasertib -0.276
inactive: [1] -0.12 | [2] 0.084 | epoxomicin -0.012 | [3] -0.018 | [4] 0.039 | [5] 0.033 | [6] -0.038

NSUN2 (UniProt Q08J23)
inactive: [1] -0.182 | volasertib -0.286 | [2] 0.051 | epoxomicin -0.044 | [3] -0.044 | [4] 0.009 | [5] 0.025 | [6] -0.131

NUP160 (UniProt Q12769)
inactive: [1] -0.109 | [2] 0.005 | epoxomicin -0.049 | [3] 0.04 | [4] 0.007 | [5] -0.033 | [6] 0.014
active: volasertib -0.62

OSBP (UniProt P22059)
inactive: [1] 0.056 | [2] 0.032 | epoxomicin 0.053 | [3] -0.087 | [4] 0.013 | [5] -0.064 | [6] 0.061
active: volasertib 0.377

NTMT1 (UniProt Q9BV86)
inactive: [1] -0.047 | volasertib -0.004 | [2] 0.051 | epoxomicin 0.092 | [3] -0.141 | [4] 0.081 | [5] -0.037 | [6] 0.099

OTUD4 (UniProt Q01804)
inactive: [1] 0.078 | volasertib -0.067 | [2] 0.009 | epoxomicin -0.085 | [3] 0.098 | [4] 0.011 | [5] 0.041 | [6] 0.075

NUDT8 (UniProt Q8WV74)
inactive: [1] -0.373 | volasertib 0.015 | [2] 0.027 | [7] 0.067 | [4] -0.01 | rosiglitazone 0.049 | [5] -0.119

ORC3 isoform 2 (UniProt Q9UBD5)
inactive: [1] -0.046 | volasertib -0.396 | [2] 0.044 | epoxomicin 0.181 | [3] -0.017 | [4] 0.067 | [5] -0.034 | [6] -0.376

OTUD6B (UniProt Q8N6M0)
inactive: [1] -0.163 | [2] 0.036 | epoxomicin 0.094 | [3] -0.055 | [4] 0.066 | [5] -0.019 | [6] -0.137
active: volasertib -0.435

OAT (UniProt P04181)
inactive: [1] 0.049 | volasertib 0.1 | [2] 0.021 | epoxomicin 0.043 | [3] -0.1 | [4] 0.004 | [5] -0.102 | [6] -0.164

NUDT1 (UniProt P36639)
inactive: [2] -0.012 | epoxomicin -0.039 | [3] -0.19 | [4] 0.06 | [5] -0.088 | [6] 0.157
active: [1] 0.971 | volasertib 1.35

OGFOD1 (UniProt Q8N543)
inactive: [1] 0.049 | volasertib 0.038 | [2] -0.025 | epoxomicin 0.042 | [3] -0.013 | [4] -0.022 | [5] -0.022 | [6] -0.051

NUDCD2 (UniProt Q8WVJ2)
active: volasertib -0.566
inactive: [1] -0.177 | [2] 0.056 | epoxomicin -0.098 | [3] 0.021 | [4] 0.081 | [5] 0.023 | [6] -0.291

Five successive entries out of the list so far:
OTUD4 (UniProt Q01804)
inactive: [1] 0.078 | volasertib -0.067 | [2] 0.009 | epoxomicin -0.085 | [3] 0.098 | [4] 0.011 | [5] 0.041 | [6] 0.075

NUDT8 (UniProt Q8WV74)
inactive: [1] -0.373 | volasertib 0.015 | [2] 0.027 | [7] 0.067 | [4] -0.01 | rosiglitazone 0.049 | [5] -0.119

ORC3 isoform 2 (UniProt Q9UBD5)
inactive: [1] -0.046 | volasertib -0.396 | [2] 0.044 | epoxomicin 0.181 | [3] -0.017 | [4] 0.067 | [5] -0.034 | [6] -0.376

OTUD6B (UniProt Q8N6M0)
inactive: [1] -0.163 | [2] 0.036 | epoxomicin 0.094 | [3] -0.055 | [4] 0.066 | [5] -0.019 | [6] -0.137
active: volasertib -0.435

OAT (UniProt P04181)
inactive: [1] 0.049 | volasertib 0.1 | [2] 0.021 | epoxomicin 0.043 | [3] -0.1 | [4] 0.004 | [5] -0.102 | [6] -0.164

Next part:

NUDT6 (UniProt P53370)
inactive: [1] 0.177 | volasertib 0.041 | [2] -0.289 | epoxomicin 0.031 | [4] -0.055 | [5] -0.132

NUP85 (UniProt Q9BW27)
active: volasertib -0.561
inactive: [1] -0.158 | [2] -0.008 | epoxomicin 0.022 | [3] -0.01 | [4] -0.004 | [5] -0.038 | [6] -0.045

ORC5 (UniProt O43913)
inactive: [1] -0.196 | volasertib -0.42 | [2] 0.074 | [3] -0.103 | [4] 0.105 | [5] -0.029 | [6] -0.203

NSMCE4A (UniProt Q9NXX6)
inactive: [1] 0.069 | volasertib 0.053 | [2] 0.103 | epoxomicin -0.02 | [3] -0.251 | [4] -0.13 | [5] -0.33 | [6] -0.009

PAAF1 (UniProt Q9BRP4)
active: epoxomicin -0.275
inactive: [1] 0.006 | volasertib -0.034 | [2] -0.021 | [3] -0.051 | [4] -0.009 | [5] -0.07 | [6] -0.039

OPA1 isoform 2 (UniProt O60313)
active: [6] -0.347
inactive: [1] -0.187 | volasertib -0.264 | [2] 0.039 | epoxomicin 0.027 | [3] -0.081 | [4] 0.023 | [5] -0.013

OSTM1 (UniProt Q86WC4)
inactive: [1] -0.216 | volasertib -0.169 | [2] 0.058 | epoxomicin 0.107 | [3] -0.215 | [4] -0.072 | [5] 0.035 | [6] -0.064
